Laboratory results published in paper PMC5376975, “Structural studies of RFCC tf18 reveal a novel chromatin recruitment role for Dcc1”.
No constants are given. Whether binding was seen depends on the method and setting. Some binding calls cover weakened binding; strength is not graded here.

T1: Dcc1-Ctf8 heterodimer (S. cerevisiae) (UniProt P25559+P38877)
T1 sequence 1: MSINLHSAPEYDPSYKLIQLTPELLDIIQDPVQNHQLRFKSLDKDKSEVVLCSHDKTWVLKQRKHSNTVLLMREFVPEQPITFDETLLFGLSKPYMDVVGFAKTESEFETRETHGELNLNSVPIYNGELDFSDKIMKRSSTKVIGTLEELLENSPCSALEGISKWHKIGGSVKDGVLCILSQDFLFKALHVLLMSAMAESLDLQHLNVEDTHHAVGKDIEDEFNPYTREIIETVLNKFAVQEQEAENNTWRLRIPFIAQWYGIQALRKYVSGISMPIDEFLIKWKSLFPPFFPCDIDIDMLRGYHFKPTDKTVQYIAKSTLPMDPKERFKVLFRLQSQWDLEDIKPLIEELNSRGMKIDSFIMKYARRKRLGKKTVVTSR
T1 sequence 2: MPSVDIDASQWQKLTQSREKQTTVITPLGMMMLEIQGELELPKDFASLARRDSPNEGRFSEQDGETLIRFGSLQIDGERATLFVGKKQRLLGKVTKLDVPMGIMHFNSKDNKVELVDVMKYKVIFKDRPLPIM

T2: Ctf18 C-terminus (residues 666-741) (S. cerevisiae) (UniProt P49956)
T2 sequence: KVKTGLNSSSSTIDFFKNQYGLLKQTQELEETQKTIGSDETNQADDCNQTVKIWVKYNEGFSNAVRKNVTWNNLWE

T3: Dcc1 (full length) (S. cerevisiae) (UniProt P25559)
T3 sequence: T1 sequence 1

T4: Dcc1 with WH2 and WH3 deleted (S. cerevisiae) (UniProt P25559)
T4 sequence: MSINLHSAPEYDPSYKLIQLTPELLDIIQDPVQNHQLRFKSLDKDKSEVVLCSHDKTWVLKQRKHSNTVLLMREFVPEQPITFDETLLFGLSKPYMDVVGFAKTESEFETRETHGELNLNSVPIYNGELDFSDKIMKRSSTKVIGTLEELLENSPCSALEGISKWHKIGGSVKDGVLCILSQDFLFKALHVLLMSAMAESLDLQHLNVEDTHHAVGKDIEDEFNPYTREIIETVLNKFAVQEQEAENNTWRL

T5: Dcc1 with WH3 deleted (S. cerevisiae) (UniProt P25559)
T5 sequence: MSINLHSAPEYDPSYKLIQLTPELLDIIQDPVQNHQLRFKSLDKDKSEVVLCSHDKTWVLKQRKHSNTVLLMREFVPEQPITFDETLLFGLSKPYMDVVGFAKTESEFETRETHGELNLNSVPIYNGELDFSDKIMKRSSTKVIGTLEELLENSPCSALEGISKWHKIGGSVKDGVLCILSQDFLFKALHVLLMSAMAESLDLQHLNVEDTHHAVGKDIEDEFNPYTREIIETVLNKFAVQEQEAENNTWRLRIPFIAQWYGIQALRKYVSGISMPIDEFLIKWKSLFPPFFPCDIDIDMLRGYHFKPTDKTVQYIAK

B1: Ctf18 C-terminus (residues 666-741) (domain or fragment, UniProt P49956 666-741)
chain: T2 sequence
B2: Dcc1 (full length) (protein, UniProt P25559 1-380)
chain: T1 sequence 1
B3: Ctf8 (full length) (protein, UniProt P38877 1-133)
chain: T1 sequence 2
B4: Dcc1 with WH3 deleted (domain or fragment, UniProt P25559 1-318)
chain: T5 sequence
B5: Dcc1 with WH2 and WH3 deleted (domain or fragment, UniProt P25559 1-252)
chain: T4 sequence

Legend:
[1] = target: T1, Dcc1-Ctf8 heterodimer (S. cerevisiae); assay: crystal structure; Ctf18^C-Dcc1-Ctf8 heterotrimer, co-expressed in E. coli and purified as a complex; crystals in 0.1 M Bis-Tris propane pH 6.3, 0.2 M NaBr, 17% PEG 3350, 20°C; 2.4 Å; both purified
[2] = target: T2, Ctf18 C-terminus (residues 666-741) (S. cerevisiae); assay: as above
[3] = target: T3, Dcc1 (full length) (S. cerevisiae); assay: as above
[4] = target: T2, Ctf18 C-terminus (residues 666-741) (S. cerevisiae); assay: co-purification of co-expressed recombinant complex (His-Trap, MonoQ, gel filtration; SDS-PAGE); Dcc1 deletions co-expressed with Ctf8 and His6-Ctf18^C; complexes purified in the same way as samples for crystallisation and shown on an SDS-PAGE gel
[5] = target: T4, Dcc1 with WH2 and WH3 deleted (S. cerevisiae); assay: as above
[6] = target: T5, Dcc1 with WH3 deleted (S. cerevisiae); assay: as above

Binder | binding [2] | binding [4] | also measured
B1 |  |  | binding [1]: binds
B2 | binds |  | 
B3 | binds | binds | binding [3]: binds; binding [5]: binds; binding [6]: binds
B4 |  | binds | 
B5 |  | binds | 
